The results in this text go back to PMC5582647.

Chains of the proteins cited; added tags and fusions are not shown.
UniProt P63017, whole entry: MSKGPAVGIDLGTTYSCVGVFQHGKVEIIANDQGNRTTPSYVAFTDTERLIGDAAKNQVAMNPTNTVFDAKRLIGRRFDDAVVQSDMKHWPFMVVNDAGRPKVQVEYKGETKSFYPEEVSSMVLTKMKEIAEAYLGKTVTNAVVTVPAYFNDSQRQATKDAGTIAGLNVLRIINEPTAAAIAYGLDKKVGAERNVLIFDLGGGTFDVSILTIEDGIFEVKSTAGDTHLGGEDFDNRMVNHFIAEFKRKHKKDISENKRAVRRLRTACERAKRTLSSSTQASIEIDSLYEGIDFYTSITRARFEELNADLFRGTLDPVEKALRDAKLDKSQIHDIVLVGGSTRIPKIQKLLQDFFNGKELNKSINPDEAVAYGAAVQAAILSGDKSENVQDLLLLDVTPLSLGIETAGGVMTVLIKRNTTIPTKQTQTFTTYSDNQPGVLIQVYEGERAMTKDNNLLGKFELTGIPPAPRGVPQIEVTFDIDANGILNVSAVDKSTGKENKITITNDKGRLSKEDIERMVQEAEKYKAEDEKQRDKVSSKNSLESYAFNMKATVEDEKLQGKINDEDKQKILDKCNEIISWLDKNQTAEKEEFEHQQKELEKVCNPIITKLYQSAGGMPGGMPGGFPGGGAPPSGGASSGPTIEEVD

For at least one entry, the source does not settle the construct or the ends of the probe. Results from cells or extracts need not show a direct contact.

The target of this data set is heat shock cognate 71-kDa protein (HSPA8) (UniProt P63017). The data set can be described thus: pull-down from cell lysate with mass spectrometry. Particulars: the KD of 2.5 nM (cited) is for whole Ehrlich cells, not for HSPA8, Pull-down buffer not given (protocol of Zamay et al.), cell experiments in DPBS with 0.9 mM CaCl2 and 0.49 mM MgCl2, aptamer heated at 95 C 10 min then ice 10 min, protein in an extract, single-stranded DNA.

As to “CTCCTCTGACTGTAACCACGTCAATGGGTGATATATGCAGGTTACGCTGGCTAGTTGAAAGCATAGGTAGTCCAGAAGCC [As42 (AS42) aptamer]”, the binding result is listed as “binds”.
